PubChem BioAssay AID1259415 (National Center for Advancing Translational Sciences (NCATS), 2018)
Values joined by “and” are separate entries in the source; they are usually repeats but may differ in a detail not shown here. Equal values may be shown once. Among all 410,000 compounds or so, about 18,000 (4.4%) were called active. This list was built around the results that the source calls inconclusive (neither active nor inactive); the mix of calls is not that of the screen. No stated cut-off is given here; in the data, active means activity change below about -60%; inconclusive means no clear call, values can overlap the other calls; inactive means above about -39%.

Assay: qHTS Assay for inhibitors of the human cytomegalovirus (HCMV)
Conditions: HFF cells, HCMV-luciferase reporter, 72 h; at 57.5 µM; active compounds read low
Procedure, shortened: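 Luciferase read-out from HCMV-luciferase-infected HFFs (MOI 1 PFU/cell) 72 h post infection at 37C; compounds added after 16 h cell attachment; activity normalized between buffer-only basal and Salinomycin (10uM) inhibitor controls.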
On the % scale 0 is the no-effect control and ±100 the full control effect.

Structure (SMILES) | activity change, negative = inhibition
CCCN(CCC)C(=O)CCSCCC(=O)N(CCC)CCC | active: -102%
O=C(Nc1cccc2cccnc12)c1cccc2c(Br)cccc12 | inconclusive: -49.1%
CCc1cc2c(cc3c(=O)n(CC(=O)NC4CCC(C)CC4)nc(CC)n32)s1 (stereo not given) | inactive: 89.6%
COc1cccc(C(=O)COc2cccc(NC(=O)c3cccc([N+](=O)[O-])c3)c2)c1 | inconclusive: -48.8%
O=C1N/C(=N/N=C/c2ccccc2O)SC1Cc1ccc(F)cc1 (stereo not given) | active: -65.8%
O=C(Nc1ccccc1N1CCOCC1)c1ccc([N+](=O)[O-])s1 | inconclusive: -52.7%
NC(=O)Nc1ccc(C(=O)OCC(=O)N2CCCC2=O)cc1 | inactive: 0%
Cc1nc(SCC(=O)Nc2ccccc2Cl)cc(-c2ccccc2)n1 | inconclusive: -45.6%
NC(=O)[C@H]1CC2(CC(c3cccc(NC(=O)COc4ccc(Cl)cc4)c3)=NO2)CN1C(=O)c1ccc(Cl)cc1 (stereo not given in full) | inconclusive: -54%
COc1ccc(NC(=O)COc2cccc(-n3cnnn3)c2)cc1 | inconclusive: -55.8%
COc1ccccc1CCN=C(N)NS(=O)(=O)c1ccc(C)cc1 | inconclusive: -50.5%
Cc1cc(C)c2ccc(N)nc2c1O | active: -105%
CCOc1cc(C)c(Cl)cc1S(=O)(=O)NCc1ccc2c(c1)OCO2 | inconclusive: -43.6%
COc1cccc(OC)c1C(=O)NC(=S)Nc1ccc2oc(-c3ccncc3)nc2c1 | inconclusive: -43.7%
O=C(N/N=C/c1cccc([N+](=O)[O-])c1)c1cc(-c2ccc3c4c(cccc24)CC3)n[nH]1 | inconclusive: -55.8%
CC1(C(=O)Nc2ccccc2F)CCN1C(=O)Cc1ccc(-c2ccccc2)cc1 (stereo not given) | inconclusive: -44.7%
CCCN(CCC)c1nc(NC2CCN(C(=O)OCC)CC2)nc(OC)n1 | inconclusive: -46.8%
CC1=NN(Cc2cc(C(C)(C)C)c(O)c(C(C)(C)C)c2)C(=O)C1 | inconclusive: -43.1%
COCCCNC(=O)c1sc2nc(C)c(C(=O)Nc3ccc(Cl)cc3)c(-c3ccc(Br)cc3)c2c1N | active: -76.5%
COc1ccccc1C(=O)Nc1ccc2nc3n(c(=O)c2c1)CCCC3 | inconclusive: -57.9%
Cc1onc(-c2c(F)cccc2Cl)c1C(=O)OCC(=O)Nc1cccc(S(=O)(=O)N(C)C)c1 | active: -70%
O=C1Nc2ccccc2/C1=C/c1nc2ccccc2c(=O)n1-c1ccc(O)cc1 | inconclusive: -42.2%

Structure (SMILES) | activity change, negative = inhibition
CC(=O)c1ccc(OCCCC(=O)Nc2ccc(C)c(S(=O)(=O)N3CCCCC3)c2)cc1 | inconclusive: -45.8%
Cc1cc(NC(=O)Nc2ccccc2[N+](=O)[O-])n(C)n1 | inconclusive: -42%
CCCCCCSc1ccc([C@@H]2[C@H]3C(=O)N(C)C(=O)[C@H]3[C@]3(C(=O)OC)CCCCN23)cc1 | inactive: -0.38%
O=C(CCNS(=O)(=O)c1cccc2nonc12)Nc1ccc(F)cc1 | inactive: 2.32%
Cc1cccc(C(=O)c2cnc3ccccc3c2-c2ccccc2)c1 | inconclusive: -51.3%
CCOC(=O)N1CCC(Nc2c(NCCCN(C)Cc3ccccc3)c(=O)c2=O)CC1 | inconclusive: -57.7%
COc1cc(C2C(C#N)=C(C)NC3=C2C(=O)c2ccccc23)cc(OC)c1OC (stereo not given) | inconclusive: -40.3%
CCOc1ccccc1N1CN(CC)CNC1=S | inconclusive: -50.6%
COc1cc(/C=N/OCC(=O)NC2CCCCC2C)ccc1OCc1ccc(Cl)cc1 (stereo not given) | inconclusive: -41.5%
FC(F)(F)Oc1ccc(NC(=S)NCc2ccccc2)cc1 | inconclusive: -46.2%
O=C(CSc1nnc(-c2ccncc2)o1)Nc1ccccc1C(F)(F)F | inconclusive: -42.8%
COc1ccc(NC(=O)C2Cc3c(-c4ccc5c(c4)OCO5)ccnc3O2)cn1 (stereo not given) | inconclusive: -44.4%
O=c1c2c(n3cnnc3n1-c1ccccc1)-c1ccccc1CC21CCCC1 | inconclusive: -58.9%
CCOC(=O)N1CCN(Cc2nnc(-c3ccccc3C)o2)CC1 | inactive: -14.1%
O=C(NCc1ccccc1Cl)c1ccccc1Oc1ccccc1 | inconclusive: -50%
C[C@H](CO)N1C[C@H](C)[C@H](CN(C)C(=O)Nc2ccccc2)OCc2cnnn2CCCC1=O | inactive: -9.61%
Cc1cc(N/N=C/c2ccc([N+](=O)[O-])o2)nc2ccccc12 | active: -78.9%
Cc1cc(NC(=O)CCCn2nc([N+](=O)[O-])cc2C)no1 | inconclusive: -54.2%
Cc1ccc(C(=O)N/N=C/c2cccc(OC(=O)/C=C/c3ccco3)c2)cn1 | inconclusive: -45%
COc1ccc2[nH]c3c(=O)n(/N=C/c4ccc(OC)c(CN5CCCC5)c4)c(C)nc3c2c1 | inconclusive: -45.4%
Cc1ccc(C)c(NC(=O)N2CCN(c3nnc(C)c4c(C)n(-c5ccccc5)nc34)CC2)c1 | inconclusive: -40.1%
CC(C)Oc1ccc(CNC(=O)c2ccc3c(c2)N(Cc2ccc(F)cc2)CCS3)cc1 | inactive: 9.33%

Structure (SMILES) | activity change, negative = inhibition
COc1cc(C(=O)NC(=S)Nc2ccccc2N2CCCC2)cc(OC)c1OC | inconclusive: -41.1%
Cc1c(C(=O)N/N=C/c2ccc(O)cc2)sc(=S)n1C | inconclusive: -42.5%
CCOC(=O)c1cc(-c2ccccc2)n(-c2cccc(C(=O)NC(C)CC)c2)c1C (stereo not given) | inconclusive: 0%
COc1ccc(N(C)S(=O)(=O)c2cccc(C(=O)Nc3ccc(OC)nc3)c2)cc1 | active: -67.6%
C[C@@]12C(=O)Nc3ccc(Br)cc3C(=O)N1[C@H]1c3cc(Br)ccc3OC[C@@H]1[C@@H]2c1ccccc1 | inconclusive: -47.3%
COc1ccc(-n2sc3ccccc3c2=O)cc1 | active: -102%
Cc1ccc(N(C)S(=O)(=O)c2ccc(-c3cnc(C4CC4)o3)cc2)cc1 | inconclusive: -44.3% and inconclusive: -43.6%
COc1ccc(Br)cc1C(=O)Nc1cccc(-c2nnc(-c3ccco3)o2)c1 | inconclusive: -50.7%
CC(C(=O)NCc1ccco1)n1nc(-c2ccccc2)c2cc(Cl)ccc21 (stereo not given) | inconclusive: -57.1%
O=C(c1ccc(F)cc1)N1CCN(Cc2ccccc2)CC1 | inactive: 29.6%
CC(C)c1nn2c(=O)cc(COC(=O)c3cccc(NC(=O)c4ccccc4F)c3)nc2s1 | inactive: 44.4%
Oc1cccc(/C=N/N(Cc2ccccc2)c2ccccc2)c1 | inconclusive: -44.8%
CCOC(=O)C1CCCCN1S(=O)(=O)c1cc2c(cc1C)NC(=O)CO2 (stereo not given) | inconclusive: -41.7%
CCOc1ccc(C2c3c(-c4ccccc4O)n[nH]c3C(=O)N2Cc2cccnc2)cc1OC (stereo not given) | inactive: -3.51%
Cc1noc(C)c1C1(O)CCCCCCCCCCC1 | inconclusive: -44.3%
O=C(/C=C1\OCc2ccccc21)OCc1ccccc1 | inactive: 12.8%
COC(=O)CCC(=O)N1CCc2cc(S(=O)(=O)N3CCc4ccccc43)ccc21 | inconclusive: -49.2%
O=c1c2cc([N+](=O)[O-])ccc2nc2n1CCC2 | inconclusive: -43.3%
O=C(CN1CCC(C(=O)c2ccc(F)cc2)CC1)Nc1ccccc1Cl | inactive: -33.7%
COc1ccc(Nc2nc(-c3ccccc3O)nc3ccccc23)cc1 | inconclusive: -46.2%
CCC1(C(=O)NC(=Nc2ccccc2)Nc2ccccc2)CCOC1=O (stereo not given) | inactive: -10.5%
CN(C)CCCN(C(=O)COc1ccc(Cl)cc1)c1nc2cc3c(cc2s1)OCO3 | inconclusive: -53.1%

Structure (SMILES) | activity change, negative = inhibition
CC(C)(C)CC(C)(C)NC(=S)NC1CCN(Cc2ccccc2)CC1 | inconclusive: -45.2%
Cc1ccc(NC(=O)NC(=O)COc2c(F)c(F)cc(F)c2F)c(C)c1 | inactive: -31.7%
COc1cccc(NC(=O)C2=COC3=NC(=O)N(Cc4ccccc4)CCN23)c1 | inactive: -38.3%
COc1ccccc1NC(=O)CSc1nn2c(=O)c(C)nnc2s1 | inactive: -26.9%
COC(=O)[C@]12CCCCC=C1N(Cc1ccc(Cl)cc1Cl)C(=O)[C@H](CC(=O)N1CCCC1)C2 | inconclusive: -46.7%
Cc1c(C(=O)N2CCCCCC2)c(S(=O)(=O)Nc2ccc(OC(F)(F)F)cc2)c(C)n1C | inactive: 11.6%
C=CCn1c(N)c(C(=O)Nc2ccc(C)cc2)sc1=S | active: -90.7%
CCCCn1c(N)c(N(CCC(C)C)C(=O)c2ccc([N+](=O)[O-])s2)c(=O)[nH]c1=O | inconclusive: -40.3%
S=C(NCc1ccc2c(c1)OCO2)Nc1ccc2nsnc2c1 | active: -66.3%
CCOC(=O)N1CCN(C(=O)Cn2nc(-c3ccc(Cl)cc3)ccc2=O)CC1 | inactive: 14.7%
CCOC(=O)C(C)Oc1cccc2c(=O)n(CC(=O)NCc3ccc4c(c3)OCO4)ccc12 (stereo not given) | inactive: 22.2%
Cc1ccccc1SCCNC(=O)c1ccccc1Br | inconclusive: -41.5%
CC/C(=N/NC(=O)c1ccc(Br)o1)c1ccc(Cl)cc1 | inconclusive: -43.6%
CCOc1ccc(CCNC(=O)CCCc2nnc3n(CCCOC)c(=O)c4sccc4n23)cc1 | inconclusive: -56.1%
COc1cccc(CNc2ncnc3cc(Cl)ccc23)c1 | inconclusive: -48.1%
CSC1CCCCC1(O)CSc1nc2c(cc1C#N)CCCC2 (stereo not given) | inconclusive: -52.2%
Cc1ccc(SCc2noc(-c3c(C)noc3C)n2)cc1 | inconclusive: -47.5%
O=C(Cc1cccs1)N(c1ccc(Cl)cc1)C1C=CS(=O)(=O)C1 (stereo not given) | inconclusive: -43.1%
Cc1ccc(NC(=O)CCc2c(C)[nH]c(=O)c(C#N)c2C)cc1 | inconclusive: -47.4%

Some of the entries so far, comma-delimited.
Structure (SMILES),"activity change, negative = inhibition"
CC(C)(C)CC(C)(C)NC(=S)NC1CCN(Cc2ccccc2)CC1,inconclusive: -45.2%
Cc1ccc(NC(=O)NC(=O)COc2c(F)c(F)cc(F)c2F)c(C)c1,inactive: -31.7%
COc1cccc(NC(=O)C2=COC3=NC(=O)N(Cc4ccccc4)CCN23)c1,inactive: -38.3%
COc1ccccc1NC(=O)CSc1nn2c(=O)c(C)nnc2s1,inactive: -26.9%
COC(=O)[C@]12CCCCC=C1N(Cc1ccc(Cl)cc1Cl)C(=O)[C@H](CC(=O)N1CCCC1)C2,inconclusive: -46.7%
Cc1c(C(=O)N2CCCCCC2)c(S(=O)(=O)Nc2ccc(OC(F)(F)F)cc2)c(C)n1C,inactive: 11.6%
C=CCn1c(N)c(C(=O)Nc2ccc(C)cc2)sc1=S,active: -90.7%
CCCCn1c(N)c(N(CCC(C)C)C(=O)c2ccc([N+](=O)[O-])s2)c(=O)[nH]c1=O,inconclusive: -40.3%
S=C(NCc1ccc2c(c1)OCO2)Nc1ccc2nsnc2c1,active: -66.3%
CCOC(=O)N1CCN(C(=O)Cn2nc(-c3ccc(Cl)cc3)ccc2=O)CC1,inactive: 14.7%
CCOC(=O)C(C)Oc1cccc2c(=O)n(CC(=O)NCc3ccc4c(c3)OCO4)ccc12 (stereo not given),inactive: 22.2%
Cc1ccccc1SCCNC(=O)c1ccccc1Br,inconclusive: -41.5%
CC/C(=N/NC(=O)c1ccc(Br)o1)c1ccc(Cl)cc1,inconclusive: -43.6%
CCOc1ccc(CCNC(=O)CCCc2nnc3n(CCCOC)c(=O)c4sccc4n23)cc1,inconclusive: -56.1%
COc1cccc(CNc2ncnc3cc(Cl)ccc23)c1,inconclusive: -48.1%
CSC1CCCCC1(O)CSc1nc2c(cc1C#N)CCCC2 (stereo not given),inconclusive: -52.2%
Cc1ccc(SCc2noc(-c3c(C)noc3C)n2)cc1,inconclusive: -47.5%
O=C(Cc1cccs1)N(c1ccc(Cl)cc1)C1C=CS(=O)(=O)C1 (stereo not given),inconclusive: -43.1%
